Values from PubChem BioAssay AID504791 (Drosophila RNAi Screening Center, 2011)
Assay: 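Genes of the fly required for silencing by miRNA, siRNA or endo-siRNA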 (primary screen). Cells: Drosophila S2-derived reporter cells. Reagents: long dsRNA against Drosophila genes, about 150-250 ng dsRNA per well (siRNA assay); about 80-120 ng (miRNA assay). Time to read-out: about 5 days (siRNA assay); about 4 days (miRNA assay). Conditions: copper sulfate induction of reporters: 25 µM (siRNA assay); 200 mM stated (miRNA assay), 1-2 days before reading. Measurement: 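Dual luciferase assay: Renilla to firefly signal ratio in each well, scaled to the mean ratio of its plate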. Reading the numbers: siRNA reporter hit score: higher = 3 marks a strong hit with raised ratio; -3 a strong hit with lowered ratio. Active means: 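a well was a first-pass pick when its plate-scaled ratio rose above 1.5 (siRNA assay) or 1.6 (miRNA assay), or dropped below 0.6; a gene counted only if two separate dsRNAs agreed on retest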.
The deposit covers about 23,000 reagents; shown is a random part of those with a known target gene and a result. Over the whole deposit, 199 (0.86%) got an active call. 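Plate-scaled ratios behind the calls are not deposited; printed light signals are raw; many rows marked increased or decreased are still called inactive.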 A plus sign joins genes that one reagent is predicted to hit.

gene,DRSC id,siRNA reporter hit score,stable siRNA reporter change,miRNA reporter change,"stable assay Renilla, run 1 (luminescence)","stable assay firefly, run 1 (luminescence)",outcome
CG12698,DRSC19485,,,,3720,3.62e5,inactive
FANCI (Fanconi anemia complementation group I),DRSC06416,,,,6400,3.98e5,inactive
RYa-R (RYamide receptor),DRSC16757,,,,8752,4.72e5,inactive
"E(spl)m4-BFM (Enhancer of split m4, Bearded family member)",DRSC16992,,,,7410,3.27e5,inactive
"Polr2E (RNA polymerase II, I and III subunit E)",DRSC06100,-3,,,3712,1.73e5,inactive
kdn (knockdown),DRSC18328,,,,6340,3.31e5,inactive
CG18765,DRSC15392,,,,6455,3.72e5,inactive
CG8301,DRSC16405,,,,7146,4.36e5,inactive
epsilonCOP (Coat Protein (coatomer) epsilon),DRSC02003,,,,9845,1.34e6,inactive
"SmydA-2 (SET and MYND domain containing, arthropod-specific, member 2)",DRSC10296,,,,6820,4.46e5,inactive
Ndc80,DRSC20221,,,,7795,5.82e5,inactive
Ndc80,DRSC21726,,,,10169,6.02e5,inactive
CG30058 + CG34235 + CG34312,DRSC05401,,,,6526,4.25e5,inactive
CG11369,DRSC17779,,,,5699,3.15e5,inactive
CG10000,DRSC14170,,,,6291,3.68e5,inactive
Uev1A (Ubiquitin-conjugating enzyme variant 1A),DRSC09763,,,,8130,4.48e5,inactive
HPS1 (Hermansky-Pudlak Syndrome 1),DRSC06195,,,,9061,5.68e5,inactive
CG33062,DRSC22195,,,,9718,6.34e5,inactive
NimB1 (Nimrod B1),DRSC01880,,,,18777,1.28e6,inactive
ec (echinus),DRSC17285,,,,7975,4.08e5,inactive
ec (echinus),DRSC17286,,,,7707,3.97e5,inactive
ec (echinus),DRSC18658,,,,6294,3.09e5,inactive
sloth2 + sloth1,DRSC17922,,,,5467,3.08e5,inactive
sloth2 + sloth1,DRSC17923,,,,5342,3.52e5,inactive
Tep2 (Thioester-containing protein 2),DRSC02679,,,,9429,5.70e5,inactive
Tep2 (Thioester-containing protein 2),DRSC03451,,,,11035,5.50e5,inactive
M7BP (Myosin-7a binding protein),DRSC05932,,,,7994,6.04e5,inactive
Jon44E (Jonah 44E),DRSC07216,,,,5847,3.15e5,inactive
smid (smallminded),DRSC11398,,,,6011,4.69e5,inactive
CG18420,DRSC01954,,,,7599,4.27e5,inactive
CG15468,DRSC18051,,,,6115,3.37e5,inactive
mtSSB (mitochondrial single stranded DNA-binding protein),DRSC17005,,,,7307,4.33e5,inactive
ng3 (new glue 3),DRSC18804,,,,5772,2.94e5,inactive
CG10903,DRSC14281,,,,6370,4.31e5,inactive
CG13488,DRSC04133,,,,6959,4.78e5,inactive
CG8765,DRSC11041,,,,5455,2.59e5,inactive
CG8765,DRSC23043,,reporter ratio raised past the hit cutoff,,1384,59901,inactive
SH3PX1 (SH3 and PX domain containing 1),DRSC11139,,,,4738,3.14e5,inactive
Girdin,DRSC08292,,,,5795,3.57e5,inactive
Rh4 (Rhodopsin 4),DRSC11268,,,,3927,3.69e5,inactive
CG6142,DRSC15976,,,,7215,3.36e5,inactive
oc (ocelliless),DRSC18808,,,,5656,2.65e5,inactive
CG10562,DRSC14257,,,,7906,6.34e5,inactive
CG42307 + mus312,DRSC11008,,,,6586,4.11e5,inactive
Pabp2,DRSC07501,,,,6550,3.46e5,inactive
ttk (tramtrack),DRSC14078,,,,7907,3.53e5,inactive
ttk (tramtrack),DRSC17091,,,,5596,3.08e5,inactive
CG13344,DRSC06378,,,,8042,3.91e5,inactive
ea (easter),DRSC16939,,,,6971,3.38e5,inactive
CCT2 (Chaperonin containing TCP1 subunit 2),DRSC18415,,,,7432,3.96e5,inactive
PIG-O (Phosphatidylinositol glycan anchor biosynthesis class O),DRSC06123,,,,9161,2.50e5,inactive
ksr (kinase suppressor of ras),DRSC12379,,,,5843,2.78e5,inactive
wun (wunen),DRSC07719,,,,6814,4.33e5,inactive
Crg-1 (Circadianly Regulated Gene),DRSC22882,,,,3735,4.48e5,inactive
CG11437,DRSC11659,,,,5903,3.62e5,inactive
shot (short stop),DRSC05459,,,,6351,4.08e5,inactive
shot (short stop),DRSC05460,,,,5795,3.20e5,inactive
shot (short stop),DRSC07682,,,,7737,4.59e5,inactive
Pgant2 (Polypeptide N-Acetylgalactosaminyltransferase 2),DRSC00587,,,,8379,5.50e5,inactive
CG10252,DRSC14221,,,,10969,3.51e5,inactive
CR33319 (pseudo),DRSC01826,,,,3583,2.27e5,inactive
CG15545,DRSC15083,,,,6047,2.63e5,inactive

Next part, starting with the last 5 of the part before.
gene,DRSC id,siRNA reporter hit score,stable siRNA reporter change,miRNA reporter change,"stable assay Renilla, run 1 (luminescence)","stable assay firefly, run 1 (luminescence)",outcome
shot (short stop),DRSC07682,,,,7737,4.59e5,inactive
Pgant2 (Polypeptide N-Acetylgalactosaminyltransferase 2),DRSC00587,,,,8379,5.50e5,inactive
CG10252,DRSC14221,,,,10969,3.51e5,inactive
CR33319 (pseudo),DRSC01826,,,,3583,2.27e5,inactive
CG15545,DRSC15083,,,,6047,2.63e5,inactive
Np (Notopleural),DRSC06089,,,,7166,4.28e5,inactive
Np (Notopleural),DRSC07094,,,,6426,4.49e5,inactive
Np (Notopleural),DRSC22421,,,,3544,3.15e5,inactive
CG43897,DRSC10965,,,,3956,1.62e5,inactive
CG43897,DRSC10967,,,,5692,3.41e5,inactive
CG43897,DRSC21583,,,,3244,3.80e5,inactive
"Pka-C3 (Protein kinase, cAMP-dependent, catalytic subunit 3)",DRSC09402,,,,5587,4.57e5,inactive
"Pka-C3 (Protein kinase, cAMP-dependent, catalytic subunit 3)",DRSC11254,,,reporter ratio raised past the hit cutoff,10589,4.67e5,inactive
CG33298,DRSC02210,,,,8108,3.79e5,inactive
CG33298,DRSC02672,,,,15926,9.96e5,inactive
Tango10 (Transport and Golgi organization 10),DRSC19807,,,,7082,5.28e5,inactive
Pect (Phosphoethanolamine cytidylyltransferase),DRSC02867,,,,10854,1.18e6,inactive
Pect (Phosphoethanolamine cytidylyltransferase),DRSC02868,,,,6130,4.93e5,inactive
mRpL42 (mitochondrial ribosomal protein L42),DRSC06235,,,,5872,4.17e5,inactive
daw (dawdle),DRSC00479,,,,11819,5.18e5,inactive
ben (bendless),DRSC20310,,,,8583,5.43e5,inactive
ben (bendless),DRSC21261,,,,5607,3.40e5,inactive
lectin-21Cb,DRSC00355,,,,7852,4.06e5,inactive
CG31371,DRSC15079,,,,6543,4.05e5,inactive
RalGPS (Ral GEF with PH domain and SH3 binding motif),DRSC06941,,,,9984,3.42e5,inactive
CG2991,DRSC00559,,,,9615,2.85e5,inactive
CG13829,DRSC14679,,,,7526,3.09e5,inactive
net,DRSC00309,,,,7387,4.44e5,inactive
Dph4 (Diphthamide biosynthesis 4),DRSC12318,,,,6883,4.54e5,inactive
"Itpr (Inositol 1,4,5,-trisphosphate receptor)",DRSC12354,,,,7060,4.28e5,inactive
Rab3-GAP (Rab3 GTPase activating protein),DRSC02001,,,,26192,6.30e5,inactive
Nup35 (Nucleoporin 35kDa),DRSC19999,,,,9407,3.50e5,inactive
nanos,DRSC17018,,,,7762,3.10e5,inactive
CG10494,DRSC04072,3,,,13201,7.85e5,inactive
gudu,DRSC02820,,,,6914,4.07e5,inactive
bab1 (bric a brac 1),DRSC08379,,,,4160,2.65e5,inactive
bab1 (bric a brac 1),DRSC08709,,,,6767,5.23e5,inactive
bab1 (bric a brac 1),DRSC21882,,,,8310,5.93e5,inactive
"Trpm (Transient receptor potential cation channel, subfamily M)",DRSC06629,,,,10919,5.68e5,inactive
"Trpm (Transient receptor potential cation channel, subfamily M)",DRSC21566,,,,10010,4.83e5,inactive
Cyp12d1-d + Cyp12d1-p,DRSC21507,,,,9985,5.90e5,inactive
Sym (Symplekin),DRSC12301,,,,6567,4.11e5,inactive
CG12470,DRSC18620,,,,7176,4.21e5,inactive
gpp (grappa),DRSC12515,,reporter ratio raised past the hit cutoff,,6955,2.54e5,active
gpp (grappa),DRSC12516,,,,6550,2.96e5,inactive
Krn (Keren),DRSC11202,,,,10314,5.65e5,inactive
CG13113,DRSC02211,,,,9124,4.73e5,inactive
"Smyd4-3 (SET and MYND domain containing, class 4, member 3)",DRSC07041,,,,7997,3.90e5,inactive
GEFmeso (Guanine nucleotide exchange factor in mesoderm),DRSC06748,,,,8760,2.65e5,inactive
GEFmeso (Guanine nucleotide exchange factor in mesoderm),DRSC06940,,,reporter ratio raised past the hit cutoff,7307,3.18e5,inactive
GEFmeso (Guanine nucleotide exchange factor in mesoderm),DRSC21475,,,,8768,4.95e5,inactive
